Laboratory results reported in patent publication US9765381B2, “Mutated genes for the catalytic protein of oplophorus luciferase and use thereof” (JNC Corporation, priority 2013, dated 2017).
Some of these results come from one statement about several compounds together. For at least one compound, name, drawing or mass did not settle the structure.

Assay: Substrate specificities for amino-terminal deleted nanoKAZ
Type: biochemical
Details: with nanoKAZ deletion mutants ΔN2T-, ΔN3L-, ΔN4E-nKAZ
Experimental: The enzyme solutions of amino-terminal deleted nanoKAZ used for substrate specificity studies were prepared by the method described in EXAMPLE 12, using pcDNA3 vectors (pcDNA3-ΔN2T-nKAZ, pcDNA3-ΔN3L-nKAZ, pcDNA3-ΔN4E-nKAZ, pcDNA3-ΔN5D-nKAZ and pcDNA3-ΔN6F-nKAZ) for expression of the amino-terminal deletions, which were obtained by the method described in EXAMPLE 11. After transfection to CHO-K1 cells and then incubation for 48 hours, the culture medium were collected and stored in a frozen state. The coelenterazine analogues used for substrate specificity studies were synthesized by the methods described in publications, respectively. Specifically, coelenterazine (CTZ), h-coelenterazine (h-CTZ) and f-coelenterazine (f-CTZ), 6h-f-coelenterazine (6h-f-CTZ) were synthesized by the method described in Inouye et al (2013) Biochem. Biophys. Res. Commun. […]
A luminescence reaction was started by the addition of 2 μL of the freeze-thawed culture medium on ice to 100 μL of TE containing 1 μg of coelenterazine or its analogue. The luminescence activities were measured for 10 seconds using a luminometer (manufactured by Atto Inc.: AB2200), and the maximum intensity of luminescence (Imax) of nanoKAZ was shown as a relative luminescence activity using coelenterazine as a substrate.

| SMILES | higher activity than coelenterazine (substrate compared) |
| --- | --- |
| O=c1c(Cc2ccc(F)cc2)nc2c(Cc3ccccc3)[nH]c(-c3ccc(O)cc3)cn1-2 [f-CTZ, f-coelenterazine, reference compound] | over 10 fold |
| Oc1ccc(-c2cn3c(O)c(Cc4ccccc4)nc3c(Cc3ccccc3)n2)cc1 [h-CTZ, h-coelenterazine, reference compound] | over 10 fold |
